According to patent US20140342392A1, “OPTIMIZED INSECT-BASED EX VIVO MODEL FOR TESTING BLOOD-BRAIN BARRIER PENETRATION AND METHOD FOR EXPOSING INSECT BRAIN TO CHEMICAL COMPOUNDS” (ENTOMOPHARM ApS, priority 2011, published 2014):
Like-named read-outs stand apart in the source and are kept apart here.

Experiments:
Conditions in all cases: 5 min, 30 uM
[1] = system: locust brain (blood-brain barrier)
Protocol: (§1) 1. […] The insects may be obtained from local suppliers or bred in house. The grasshoppers were reared under crowded conditions at 28° C. and a 12:12 dark:light photocycle and fed fresh grass and bran. Before experiments the grasshoppers were fed ecologically cultivated wheat for two weeks. Animals used are adult males (in some experiments females) between two to four weeks after adult emergence. […] After various times of exposure the preparation is washed in saline and the brain is dissected under microscope with fine forceps. The neural lamella surrounding the brain is removed in saline and the brain is then UD in saline, centrifuged and the supernatant frozen until analyses. Drug concentration is analysed by HPLC, LC/MSMS or other methods.

[2] = system: locust brain (blood-brain barrier); remark: listed apart in the source
[3] = system: locust brain (blood-brain barrier); remark: listed apart in the source
Protocol: as §1, with “2.” for “1.”, “The neural lamella surrounding the brain is removed in saline and the brain is then UD in saline, centrifuged and the supernatant frozen until analyses.” left out

average uptake [1]: 0.74 pmol/brain | average uptake [2]: 0.39 pmol/brain | average uptake [3]: 3.74 pmol/brain
Compound: CC(C)NCC(O)COc1ccc(CC(N)=O)cc1 (stereo not drawn) [atenolol]
